Experimental data: PubChem BioAssay AID489008 (National Center for Advancing Translational Sciences (NCATS), 2010)
The shares of active, inactive and inconclusive entries below differ from those in the screen. Calls come from the whole dose curve; as a rule, active = well fitted inhibition curve with a large enough effect; inconclusive = small, poorly fitted or top-dose-only effect; inactive = flat fitted curve, though single readings scatter. A potency beside an inconclusive call is a rough fit, not a confirmed value.

Chains of the proteins cited; added tags and fusions are not shown. Lines headed by an entry give the natural chain unless they say otherwise; changes in a name come on top.
UniProt P02791: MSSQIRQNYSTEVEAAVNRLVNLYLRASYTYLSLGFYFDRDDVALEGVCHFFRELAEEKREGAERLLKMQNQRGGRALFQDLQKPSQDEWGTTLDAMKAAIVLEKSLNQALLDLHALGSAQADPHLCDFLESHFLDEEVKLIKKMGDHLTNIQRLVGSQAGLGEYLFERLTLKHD

What follows are compounds tested against Ferritin light chain (Equus caballus) (UniProt P02791) (assay: Confirmation Assay for Identification of Novel General Anesthetics). Settings: apoferritin 1-aminoanthracene fluorescence displacement.
Summary of the method: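 Horse apoferritin (10 uM) pre-loaded with 1-AMA (50% saturated, PBS) exposed to compounds 10 min at room temperature; loss of 1-AMA fluorescence (380/535 nm) scaled between free and bound ligand, curves fitted with Hill equation.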
Note: nearly all actives have a fitted effect of over 40% in size.
Potency is the fitted concentration of half-maximal effect.

Potency, inconclusive:
CC(C)c1ccc(NC(=O)C2(C)Cc3ccccc3C(=O)O2)cc1 (stereo not drawn) 28.2 µM [inhibitor, partial curve]
O=C(c1ccccc1)N1CCSc2sccc2C1=O 28.2 µM [inhibitor, partial curve]
NC(=O)c1cccn1Cc1cccc(Cl)c1 14.1 µM [inhibitor, partial curve]
